Results are given in words; binding and its absence hold for the method and conditions named. For some assays here: In cells and extracts the contact can be indirect. Some entries that bind do so weakly or less than the wild type.
Assays:
[1] = molecular target: FLAG-tagged ZIKV NS3 (Zika virus (strain not stated for this construct)) (UniProt Q32ZE1); experiment: co-IP; FLAG-tagged ZIKV protein and V5-tagged proteasome subunit overexpressed in HEK293FT; IP with anti-FLAG mAb magnetic beads at 4 °C overnight, six washes in lysis buffer, blot with anti-V5; mouse IgG beads as negative control
[2] = molecular target: T1, API5 on the HuProt array (human) (UniProt Q9BZZ5); experiment: peptide or protein array; both purified
T1 sequence: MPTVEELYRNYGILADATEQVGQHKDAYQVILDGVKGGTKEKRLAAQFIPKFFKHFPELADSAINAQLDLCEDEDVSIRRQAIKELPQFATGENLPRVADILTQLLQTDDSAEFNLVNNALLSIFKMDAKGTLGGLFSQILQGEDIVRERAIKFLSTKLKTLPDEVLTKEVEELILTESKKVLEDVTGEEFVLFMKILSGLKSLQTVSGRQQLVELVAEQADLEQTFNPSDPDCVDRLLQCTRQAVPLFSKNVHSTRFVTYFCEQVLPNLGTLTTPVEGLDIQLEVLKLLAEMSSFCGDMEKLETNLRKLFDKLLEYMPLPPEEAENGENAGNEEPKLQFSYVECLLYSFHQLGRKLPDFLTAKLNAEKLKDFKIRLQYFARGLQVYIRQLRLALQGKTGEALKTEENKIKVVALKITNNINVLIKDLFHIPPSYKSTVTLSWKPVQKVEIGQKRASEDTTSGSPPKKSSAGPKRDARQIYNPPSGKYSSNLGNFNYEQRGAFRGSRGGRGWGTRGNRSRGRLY

Protein sequences, listed by entry. Tags and fused reporters are not part of them. Chains listed by the source or under a name are the forms on record and can include a tag or linker. Residues count along the entry.
FLAG-tagged ZIKV NS3 (Zika virus (strain not stated for this construct)) (Q32ZE1, residues 1499-2115): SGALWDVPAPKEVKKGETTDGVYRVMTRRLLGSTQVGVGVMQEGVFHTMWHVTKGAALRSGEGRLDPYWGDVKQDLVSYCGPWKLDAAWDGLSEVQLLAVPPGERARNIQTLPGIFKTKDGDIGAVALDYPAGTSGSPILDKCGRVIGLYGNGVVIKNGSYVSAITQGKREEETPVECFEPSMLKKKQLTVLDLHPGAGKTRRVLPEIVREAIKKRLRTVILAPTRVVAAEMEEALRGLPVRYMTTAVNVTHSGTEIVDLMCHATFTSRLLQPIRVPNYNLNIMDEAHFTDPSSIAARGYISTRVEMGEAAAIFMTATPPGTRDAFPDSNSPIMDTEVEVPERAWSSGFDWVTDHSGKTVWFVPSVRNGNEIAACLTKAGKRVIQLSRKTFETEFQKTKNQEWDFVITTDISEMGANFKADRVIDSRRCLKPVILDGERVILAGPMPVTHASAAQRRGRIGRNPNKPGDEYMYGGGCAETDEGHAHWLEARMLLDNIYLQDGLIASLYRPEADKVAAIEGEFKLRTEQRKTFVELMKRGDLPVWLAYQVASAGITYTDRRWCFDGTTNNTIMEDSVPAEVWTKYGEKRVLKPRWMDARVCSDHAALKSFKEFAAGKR
ZIKV-NS4A, N-terminal GST fusion, Cy5-labelled (Q32ZE1, residues 2116-2242): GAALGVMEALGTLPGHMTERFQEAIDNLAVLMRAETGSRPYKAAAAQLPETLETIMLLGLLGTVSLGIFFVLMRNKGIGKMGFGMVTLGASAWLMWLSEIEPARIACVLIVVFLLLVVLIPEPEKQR
UniProt P25788: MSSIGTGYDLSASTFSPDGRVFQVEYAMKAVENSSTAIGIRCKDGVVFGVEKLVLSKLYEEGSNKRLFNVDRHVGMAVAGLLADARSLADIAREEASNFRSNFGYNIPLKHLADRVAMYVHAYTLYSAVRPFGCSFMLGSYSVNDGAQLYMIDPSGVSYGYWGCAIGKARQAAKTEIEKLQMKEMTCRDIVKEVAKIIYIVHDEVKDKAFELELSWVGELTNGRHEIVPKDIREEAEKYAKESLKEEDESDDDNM

For “V5-tagged human proteasome subunit PSMA3 (from UniProt P25788 1-255)”, the binding [1] was “binds”.
For “ZIKV-NS4A, N-terminal GST fusion, Cy5-labelled (from UniProt Q32ZE1 2116-2242)”, the binding [2] was “binds”.

From publication PMC8498969, “An Integrated Systems Biology Approach Identifies the Proteasome as A Critical Host Machinery for ZIKV and DENV Replication” (Genomics, Proteomics & Bioinformatics, 2021)
